Experimental data reported in US8747830B2, “Wound repair composition and method” (Queensland University of Technology, priority 2007, dated 2014).

Test system: MMP's (particularly MMP-9) in chronic wound fluid
Details: inhibitor 2 mM, 37° C., 24 hours; % of untreated control remaining

## NCCCC(O)(P(=O)(O)O)P(=O)(O)O [alendronate, reference compound]
  type I collagen degradation relative to that seen in the untreated control (densitometry, FIG. 4): ≤ 10%
